Literature values as cited in US20230138414A1, “METHODS AND COMPOSITIONS FOR PREVENTING AND TREATING MYOPIA” (The Trustees of Columbia University in the City of New York, priority 2020, published 2023).
Where two headings read alike, the source gives them in different places.

Key:
progression of myopia = settings: 1% atropine, cited from earlier work
[1] = test system: progression of myopia in children; settings: first 12 months after stopping the drug, cited from earlier work

CN1[C@@H]2CC[C@H]1C[C@@H](OC(=O)C(CO)c1ccccc1)C2 (stereo partly shown) [atropine]
part of the 2-year treatment effect eliminated by rebound (progression of myopia; after discontinuation of treatment): approximately 60%
rebound increase in the myopia progression rate compared to placebo (progression of myopia; first 12 months after the cessation of atropine): 300%
rebound increase in the progression rate compared to placebo ([1]; 0.1% atropine): 170%
rebound increase in the progression rate compared to placebo ([1]; 0.5% atropine): 218%
